First the molecules themselves.
B1: calprotectin subunit s100a8 (protein, UniProt P05109 1-93)
chain: MLTELEKALNSIIDVYHKYSLIKGNFHAVYRDDLKKLLETECPQYIRKKGADVWFKELDINTDGAVNFQEFLILVIKMGVAAHKKSHEESHKE
B2: Synaptogyrin-2 (protein, UniProt O43760 1-224)
chain: MESGAYGAAKAGGSFDLRRFLTQPQVVARAVCLVFALIVFSCIYGEGYSNAHESKQMYCVFNRNEDACRYGSAIGVLAFLASAFFLVVDAYFPQISNATDRKYLVIGDLLFSALWTFLWFVGFCFLTNQWAVTNPKDVLVGADSVRAAITFSFFSIFSWGVLASLAYQRYKAGVDDFIQNYVDPTPDPNTAYASYPGASVDNYQQPPFTQNAETTEGYQPPPVY
B3: calprotectin subunit s100a9 (protein, UniProt P06702 1-114)
chain: MTCKMSQLERNIETIINTFHQYSVKLGHPDTLNQGEFKELVRKDLQNFLKKENKNEKVIEHIMEDLDTNADKQLSFEEFIMLMARLTWASHEKMHEGDEGPGHHHKPGLGEGTP

Drawing on publication PMC10200693, this text covers binding for 3 molecules.

These are yes or no findings as the source states them, for the method shown. Binding seen in cells or lysates may run through a third protein. A yes stands for co-enrichment or nearness to the bait. Other partners may have been found.

This assay addresses increased sodium tolerance 1 (IST1) (human (endogenous in moDCs)) (UniProt P53990). Kind of assay: affinity purification with mass spectrometry; endogenous IST1 immunoprecipitated from lysates of moDCs cultured overnight with or without 10% FBS (rabbit anti-IST1, protein A/G magnetic beads, 4°C; lysis buffer 200 mM NaCl, 75 mM Tris-HCl, 15 mM NaF, 7.5 mM EDTA, 7.5 mM EGTA, 0.15% Tween20); eluted with 0.2 M glycine pH 2-3; four donors; compared with beads only.
Consider B1, for which the binding result was “binds”.

Turning to B2, the binding entry is given as “binds”.

B3: the binding result is reported as “binds”.
